This is one part of the list.
Columns and labels:
Assay in all cases: log2 fold change, soluble protein after heating vs DMSO (PISA); higher = thermal stabilisation; K562 lysate, 10 uM; active = over 0.2 and 3.5 SD of the protein, either way, in both replicates (recomputed)
nilotinib = compound: Cc1cn(-c2cc(NC(=O)c3ccc(C)c(Nc4nccc(-c5cccnc5)n4)c3)cc(C(F)(F)F)c2)cn1 [nilotinib]
Summary of the method: (§1)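 Thermal stability, expressed as log-two fold change relative to solvent controls, is given from duplicates. Crude K562 extract in PBS pH 7.4 with 1 mM MgCl2, at 1 mg/mL protein, was treated with 10 μM compound for 30 min and heated in aliquots for 3 min across 48°C-58°C. After pooling, adjustment to 0.5% NP-40 at 4°C and centrifugation at 21,000xg for 90 min, supernatant protein was measured by TMTpro 16plex LC-MS/MS with channel sums equalised.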

Chains of the proteins cited; added tags and fusions are not shown. Lines headed by an entry give the natural chain unless they say otherwise; changes in a name come on top.
UniProt Q15942: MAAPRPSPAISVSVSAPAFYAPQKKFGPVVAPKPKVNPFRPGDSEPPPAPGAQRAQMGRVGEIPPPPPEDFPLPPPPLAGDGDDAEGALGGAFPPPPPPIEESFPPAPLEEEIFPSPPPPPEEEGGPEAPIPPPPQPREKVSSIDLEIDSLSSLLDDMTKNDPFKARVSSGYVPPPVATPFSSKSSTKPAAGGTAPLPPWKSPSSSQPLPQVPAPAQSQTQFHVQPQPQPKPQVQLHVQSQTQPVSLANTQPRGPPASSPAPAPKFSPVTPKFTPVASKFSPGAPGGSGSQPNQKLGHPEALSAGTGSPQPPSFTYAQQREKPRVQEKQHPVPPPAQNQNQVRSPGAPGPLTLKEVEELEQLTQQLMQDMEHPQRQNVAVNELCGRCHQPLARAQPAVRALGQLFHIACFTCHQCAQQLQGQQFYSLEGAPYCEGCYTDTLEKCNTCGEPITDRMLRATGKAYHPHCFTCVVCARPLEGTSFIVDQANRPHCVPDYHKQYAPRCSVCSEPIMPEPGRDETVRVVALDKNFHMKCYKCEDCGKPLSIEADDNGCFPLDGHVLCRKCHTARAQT
UniProt Q8TF68: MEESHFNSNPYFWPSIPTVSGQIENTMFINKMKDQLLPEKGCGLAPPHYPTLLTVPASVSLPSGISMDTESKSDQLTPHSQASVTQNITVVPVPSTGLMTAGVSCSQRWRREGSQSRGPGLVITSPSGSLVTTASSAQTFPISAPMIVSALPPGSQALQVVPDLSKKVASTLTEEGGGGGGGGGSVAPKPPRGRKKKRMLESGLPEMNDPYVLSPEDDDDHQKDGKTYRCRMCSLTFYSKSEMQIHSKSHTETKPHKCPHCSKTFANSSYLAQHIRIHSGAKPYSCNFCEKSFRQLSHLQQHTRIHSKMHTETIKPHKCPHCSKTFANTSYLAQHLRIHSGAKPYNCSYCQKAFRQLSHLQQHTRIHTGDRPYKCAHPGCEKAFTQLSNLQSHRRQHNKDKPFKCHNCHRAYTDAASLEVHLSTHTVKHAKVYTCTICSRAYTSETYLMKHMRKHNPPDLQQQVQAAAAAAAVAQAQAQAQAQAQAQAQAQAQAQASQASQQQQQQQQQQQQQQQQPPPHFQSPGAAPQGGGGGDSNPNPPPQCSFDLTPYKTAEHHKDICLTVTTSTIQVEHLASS
UniProt Q96BR6: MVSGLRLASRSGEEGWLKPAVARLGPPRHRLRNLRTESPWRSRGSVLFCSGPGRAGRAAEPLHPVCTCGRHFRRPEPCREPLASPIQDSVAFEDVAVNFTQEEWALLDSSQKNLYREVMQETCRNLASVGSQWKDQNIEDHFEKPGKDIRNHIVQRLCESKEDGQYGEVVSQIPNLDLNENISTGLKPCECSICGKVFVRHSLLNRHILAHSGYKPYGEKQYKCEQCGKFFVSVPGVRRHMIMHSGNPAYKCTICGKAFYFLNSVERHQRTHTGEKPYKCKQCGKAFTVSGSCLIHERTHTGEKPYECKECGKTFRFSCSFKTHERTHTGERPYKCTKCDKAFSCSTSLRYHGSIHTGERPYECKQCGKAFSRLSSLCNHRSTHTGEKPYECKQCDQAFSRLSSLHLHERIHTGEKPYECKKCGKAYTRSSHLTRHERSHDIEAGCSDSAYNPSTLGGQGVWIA
UniProt P52739: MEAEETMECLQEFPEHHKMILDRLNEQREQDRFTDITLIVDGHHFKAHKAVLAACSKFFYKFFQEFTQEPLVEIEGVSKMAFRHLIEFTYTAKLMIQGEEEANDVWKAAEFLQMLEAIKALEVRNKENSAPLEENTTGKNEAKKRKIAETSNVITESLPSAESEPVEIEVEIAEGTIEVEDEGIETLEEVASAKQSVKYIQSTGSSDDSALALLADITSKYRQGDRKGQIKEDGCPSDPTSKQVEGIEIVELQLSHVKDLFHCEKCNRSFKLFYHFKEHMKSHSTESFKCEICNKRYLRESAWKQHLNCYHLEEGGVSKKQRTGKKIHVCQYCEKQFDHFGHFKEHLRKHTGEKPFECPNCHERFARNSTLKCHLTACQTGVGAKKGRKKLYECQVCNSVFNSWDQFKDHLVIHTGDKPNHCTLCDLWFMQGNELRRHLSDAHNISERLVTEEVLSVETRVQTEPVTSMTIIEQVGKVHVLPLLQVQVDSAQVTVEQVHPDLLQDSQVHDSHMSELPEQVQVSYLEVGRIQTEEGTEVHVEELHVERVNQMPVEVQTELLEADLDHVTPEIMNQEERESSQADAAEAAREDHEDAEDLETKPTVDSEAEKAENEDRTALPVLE
UniProt O75362: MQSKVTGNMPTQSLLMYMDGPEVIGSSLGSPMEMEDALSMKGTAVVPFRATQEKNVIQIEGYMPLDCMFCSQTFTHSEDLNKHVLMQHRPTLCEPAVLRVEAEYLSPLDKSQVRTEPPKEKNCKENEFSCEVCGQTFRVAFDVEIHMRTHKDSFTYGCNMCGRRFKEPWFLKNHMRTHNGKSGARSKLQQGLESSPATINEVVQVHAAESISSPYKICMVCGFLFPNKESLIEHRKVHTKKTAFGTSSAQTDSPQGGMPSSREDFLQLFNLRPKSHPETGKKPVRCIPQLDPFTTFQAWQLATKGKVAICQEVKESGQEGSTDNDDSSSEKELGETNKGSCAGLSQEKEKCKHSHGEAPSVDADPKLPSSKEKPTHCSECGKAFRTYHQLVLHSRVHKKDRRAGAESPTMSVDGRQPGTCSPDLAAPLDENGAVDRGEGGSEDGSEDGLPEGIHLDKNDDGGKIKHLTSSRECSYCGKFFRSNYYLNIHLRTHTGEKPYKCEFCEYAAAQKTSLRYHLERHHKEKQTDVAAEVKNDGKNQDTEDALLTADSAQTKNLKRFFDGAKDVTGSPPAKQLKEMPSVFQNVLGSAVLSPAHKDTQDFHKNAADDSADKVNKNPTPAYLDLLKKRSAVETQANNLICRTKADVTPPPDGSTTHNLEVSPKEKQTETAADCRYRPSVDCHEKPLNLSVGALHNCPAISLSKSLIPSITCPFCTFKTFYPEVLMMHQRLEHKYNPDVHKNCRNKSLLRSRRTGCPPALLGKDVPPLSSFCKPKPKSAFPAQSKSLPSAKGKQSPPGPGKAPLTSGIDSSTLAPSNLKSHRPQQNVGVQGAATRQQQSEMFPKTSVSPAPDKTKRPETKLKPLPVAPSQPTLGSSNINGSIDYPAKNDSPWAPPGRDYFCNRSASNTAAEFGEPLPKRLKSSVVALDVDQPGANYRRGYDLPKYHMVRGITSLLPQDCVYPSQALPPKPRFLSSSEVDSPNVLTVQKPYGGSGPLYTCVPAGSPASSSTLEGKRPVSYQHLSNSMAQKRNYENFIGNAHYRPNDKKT
UniProt Q8IYH5: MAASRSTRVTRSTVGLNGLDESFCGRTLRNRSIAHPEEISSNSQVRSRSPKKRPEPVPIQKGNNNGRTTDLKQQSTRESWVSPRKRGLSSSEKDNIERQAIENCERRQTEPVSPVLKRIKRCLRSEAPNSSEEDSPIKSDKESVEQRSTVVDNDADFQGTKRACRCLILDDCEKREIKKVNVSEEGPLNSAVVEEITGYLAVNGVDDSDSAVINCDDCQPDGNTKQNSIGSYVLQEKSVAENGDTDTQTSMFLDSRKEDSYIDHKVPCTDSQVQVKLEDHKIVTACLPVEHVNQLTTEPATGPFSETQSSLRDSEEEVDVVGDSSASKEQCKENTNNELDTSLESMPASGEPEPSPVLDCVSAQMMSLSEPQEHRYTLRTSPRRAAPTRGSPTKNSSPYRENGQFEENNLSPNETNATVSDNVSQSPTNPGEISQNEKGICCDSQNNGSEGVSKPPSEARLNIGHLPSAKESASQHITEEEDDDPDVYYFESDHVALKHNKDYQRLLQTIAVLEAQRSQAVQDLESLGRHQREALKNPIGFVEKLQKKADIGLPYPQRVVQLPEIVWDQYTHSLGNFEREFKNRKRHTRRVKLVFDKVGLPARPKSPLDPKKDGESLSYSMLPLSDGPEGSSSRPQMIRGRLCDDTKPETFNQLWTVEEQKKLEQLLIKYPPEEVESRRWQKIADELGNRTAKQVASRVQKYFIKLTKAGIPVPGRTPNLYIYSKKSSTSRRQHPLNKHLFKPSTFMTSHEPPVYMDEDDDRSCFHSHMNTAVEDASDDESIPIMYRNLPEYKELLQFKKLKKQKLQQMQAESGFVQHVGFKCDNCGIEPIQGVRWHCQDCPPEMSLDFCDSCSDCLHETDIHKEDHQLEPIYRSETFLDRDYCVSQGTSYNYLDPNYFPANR
UniProt Q9C0D3: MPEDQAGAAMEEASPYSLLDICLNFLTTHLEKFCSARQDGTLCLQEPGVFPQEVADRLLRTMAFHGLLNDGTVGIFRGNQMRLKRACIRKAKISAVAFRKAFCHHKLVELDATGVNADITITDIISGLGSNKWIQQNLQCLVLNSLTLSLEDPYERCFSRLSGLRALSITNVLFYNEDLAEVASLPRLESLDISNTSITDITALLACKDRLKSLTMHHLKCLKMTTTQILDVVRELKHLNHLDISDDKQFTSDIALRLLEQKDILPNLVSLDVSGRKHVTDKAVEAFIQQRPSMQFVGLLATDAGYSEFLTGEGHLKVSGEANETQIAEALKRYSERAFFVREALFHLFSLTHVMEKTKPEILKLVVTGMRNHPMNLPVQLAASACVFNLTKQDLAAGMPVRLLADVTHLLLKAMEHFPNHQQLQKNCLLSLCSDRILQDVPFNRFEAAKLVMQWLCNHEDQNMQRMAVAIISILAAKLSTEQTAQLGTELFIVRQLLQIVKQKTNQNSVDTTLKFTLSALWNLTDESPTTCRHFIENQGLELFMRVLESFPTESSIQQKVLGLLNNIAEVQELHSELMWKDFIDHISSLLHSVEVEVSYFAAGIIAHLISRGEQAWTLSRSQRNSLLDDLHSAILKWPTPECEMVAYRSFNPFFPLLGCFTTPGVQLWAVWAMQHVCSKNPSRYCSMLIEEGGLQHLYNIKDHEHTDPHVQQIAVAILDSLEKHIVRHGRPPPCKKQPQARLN
UniProt Q969S3: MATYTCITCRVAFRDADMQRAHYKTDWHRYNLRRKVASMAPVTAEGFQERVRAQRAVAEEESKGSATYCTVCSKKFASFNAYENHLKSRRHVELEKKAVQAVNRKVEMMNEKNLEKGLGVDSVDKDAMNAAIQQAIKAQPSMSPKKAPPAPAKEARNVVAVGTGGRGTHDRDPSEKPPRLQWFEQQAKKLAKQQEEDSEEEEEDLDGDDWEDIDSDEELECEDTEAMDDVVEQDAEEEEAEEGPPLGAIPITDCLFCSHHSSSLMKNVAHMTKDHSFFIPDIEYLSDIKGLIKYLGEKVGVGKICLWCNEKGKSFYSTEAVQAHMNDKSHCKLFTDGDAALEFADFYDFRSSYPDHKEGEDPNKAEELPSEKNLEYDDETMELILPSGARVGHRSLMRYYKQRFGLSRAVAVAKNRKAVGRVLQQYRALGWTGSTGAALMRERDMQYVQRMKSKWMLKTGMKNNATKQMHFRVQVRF
UniProt A6NFI3: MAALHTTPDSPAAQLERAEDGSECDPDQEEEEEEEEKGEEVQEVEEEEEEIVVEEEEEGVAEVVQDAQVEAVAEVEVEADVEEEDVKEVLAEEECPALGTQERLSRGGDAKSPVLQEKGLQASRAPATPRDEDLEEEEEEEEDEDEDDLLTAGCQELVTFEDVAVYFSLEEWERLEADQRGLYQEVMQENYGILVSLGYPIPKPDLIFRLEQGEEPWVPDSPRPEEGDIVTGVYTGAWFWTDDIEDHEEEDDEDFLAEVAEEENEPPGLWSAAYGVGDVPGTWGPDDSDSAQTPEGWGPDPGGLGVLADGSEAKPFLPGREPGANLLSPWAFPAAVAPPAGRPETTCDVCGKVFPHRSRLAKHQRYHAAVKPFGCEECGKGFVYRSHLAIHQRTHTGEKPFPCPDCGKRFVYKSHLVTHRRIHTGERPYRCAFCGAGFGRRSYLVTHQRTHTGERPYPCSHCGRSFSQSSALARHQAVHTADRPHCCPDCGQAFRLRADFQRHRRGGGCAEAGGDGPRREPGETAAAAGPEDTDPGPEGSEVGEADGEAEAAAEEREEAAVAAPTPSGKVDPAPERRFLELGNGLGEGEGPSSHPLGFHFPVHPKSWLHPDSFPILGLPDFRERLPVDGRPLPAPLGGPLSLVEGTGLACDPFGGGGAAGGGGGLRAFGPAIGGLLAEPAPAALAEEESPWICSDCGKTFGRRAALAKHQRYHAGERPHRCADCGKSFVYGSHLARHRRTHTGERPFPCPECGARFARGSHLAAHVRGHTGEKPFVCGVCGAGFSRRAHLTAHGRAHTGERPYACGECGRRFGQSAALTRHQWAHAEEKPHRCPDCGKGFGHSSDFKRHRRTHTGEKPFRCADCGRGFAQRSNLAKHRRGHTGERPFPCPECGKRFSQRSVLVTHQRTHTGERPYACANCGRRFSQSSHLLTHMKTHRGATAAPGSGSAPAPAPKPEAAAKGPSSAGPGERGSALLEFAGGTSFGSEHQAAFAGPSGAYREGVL

[1] = compound: Cc1nc(Nc2n[nH]c3c2CN(C(=O)N[C@H](CN(C)C)c2ccccc2)C3(C)C)c2sccc2n1
Summary of the method: as §1

dasatinib = compound: Cc1nc(Nc2ncc(C(=O)Nc3c(C)cccc3Cl)s2)cc(N2CCN(CCO)CC2)n1 [dasatinib]
Summary of the method: as §1

[2] = compound: Cc1ncc(-c2ccnc(Nc3ccc(S(C)(=O)=O)cc3)n2)n1C(C)C
Summary of the method: as §1

[3] = compound: Cn1cc(-c2ccc3c(c2)CCN3C(=O)Cc2cccc(C(F)(F)F)c2)c2c(N)ncnc21
Summary of the method: as §1

quisinostat = compound: Cn1cc(CNCC2CCN(c3ncc(C(=O)NO)cn3)CC2)c2ccccc21 [quisinostat]
Summary of the method: as §1

tipifarnib = compound: Cn1cncc1[C@@](N)(c1ccc(Cl)cc1)c1ccc2c(c1)c(-c1cccc(Cl)c1)cc(=O)n2C [tipifarnib]
Summary of the method: as §1

[4] = compound: NC(=O)Nc1cc(-c2cccc(F)c2)sc1C(=O)N[C@H]1CCCNC1
Summary of the method: as §1

[5] = compound: NC1(c2ccc(-c3nc4ccn5c(=O)[nH]nc5c4cc3-c3ccccc3)cc2)CCC1
Summary of the method: as §1

[6] = compound: NCC(=O)Nc1ccc(-n2nc(C(F)(F)F)cc2-c2ccc3c(ccc4ccccc43)c2)cc1
Summary of the method: as §1

vorinostat = compound: O=C(CCCCCCC(=O)Nc1ccccc1)NO [vorinostat]
Summary of the method: as §1

silmitasertib = compound: O=C(O)c1ccc2c(c1)nc(Nc1cccc(Cl)c1)c1ccncc12 [silmitasertib]
Summary of the method: as §1

[7] = compound: O=C1NC(=O)C(c2cnc3ccccn23)=C1c1cn2c3c(cc(F)cc13)CN(C(=O)N1CCCCC1)CC2
Summary of the method: as §1

entospletinib = compound: c1cn2cc(-c3ccc4cn[nH]c4c3)nc(Nc3ccc(N4CCOCC4)cc3)c2n1 [entospletinib]
Summary of the method: as §1

[8] = compound: NC(=O)c1cnc(N[C@@H]2CCCC[C@@H]2N)nc1Nc1cccc(-n2nccn2)c1
Summary of the method: as §1

Measured: log2 fold change

ZNF507 (UniProt Q8TCN5)
inactive: nilotinib 0.001 | [1] -0.075 | dasatinib -0.015 | [2] 0.003 | [3] -0.032 | quisinostat -0.022 | tipifarnib 0.022 | [4] 0.039 | [5] -0.002 | [6] -0.004 | vorinostat -0.025 | silmitasertib 0.009 | [7] 0.004 | entospletinib -0.002

ZYX (UniProt Q15942)
inactive: nilotinib 0.006 | [1] -0.005 | dasatinib -0.003 | [2] -0.002 | [3] -0.048 | quisinostat 0.001 | tipifarnib 0.034 | [4] -0.009 | [8] -0.013 | [5] 0.033 | [6] -0.011 | vorinostat 0.127 | silmitasertib 0.01 | [7] 0.009 | entospletinib -0.012

ZNF384 (UniProt Q8TF68)
inactive: nilotinib 0.053 | [1] -0.117 | dasatinib -0.221 | [2] 0.055 | [3] 0.003 | quisinostat -0.054 | tipifarnib 0.186 | [4] -0.078 | [8] 0.199 | [5] -0.08 | vorinostat 0.128 | silmitasertib -0.059 | [7] -0.123 | entospletinib 0.214

ZNF669 (UniProt Q96BR6)
inactive: nilotinib -0.053 | [1] -0.111 | dasatinib -0.016 | [2] 0.097 | [3] 0.079 | quisinostat -0.05 | tipifarnib 0.023 | [4] 0.156 | [8] 0.129 | [5] 0.09 | vorinostat 0.103 | silmitasertib 0.006 | [7] -0.09

ZNF131 (UniProt P52739)
inactive: nilotinib -0.028 | [1] 0.129 | dasatinib -0.022 | [2] -0.034 | [3] -0.023 | quisinostat 0 | tipifarnib 0.052 | [4] 0.025 | [8] 0.109 | [5] -0.046 | [6] 0.038 | vorinostat -0.037 | silmitasertib 0.042 | [7] 0 | entospletinib 0.022

ZNF813 (UniProt Q6ZN06)
inactive: nilotinib 0.016 | [1] -0.086 | dasatinib -0.076 | [2] -0.031 | [3] 0.05 | tipifarnib 0.1

hCG_1984214 (UniProt I3L0E3)
inactive: nilotinib -0.035 | [1] 0.029 | dasatinib -0.033 | [2] 0.04 | [3] 0.022 | quisinostat -0.006 | tipifarnib 0.013 | [4] 0.013 | [8] 0.012 | [5] 0 | [6] 0.035 | vorinostat -0.165 | silmitasertib 0.111 | [7] 0.048 | entospletinib -0.044

ZNF217 (UniProt O75362)
inactive: nilotinib 0.06 | [1] 0.026 | dasatinib 0.001 | [2] 0.054 | [3] -0.057 | quisinostat -0.179 | tipifarnib -0.086 | [4] 0.014 | [8] 0.021 | [5] -0.075 | [6] 0 | silmitasertib 0.047 | [7] -0.054 | entospletinib -0.061
active: vorinostat -0.301

ZNF618 (UniProt Q5T7W0)
inactive: nilotinib 0.039 | [1] 0.15 | dasatinib -0.002 | [2] 0.025 | [3] -0.025 | quisinostat -0.051 | tipifarnib 0.048 | [4] 0.007 | [8] 0.053 | [5] 0.015 | [6] 0.041 | vorinostat 0.002 | silmitasertib -0.058 | [7] -0.02 | entospletinib 0.004

ZZZ3 (UniProt Q8IYH5)
inactive: nilotinib 0.067 | [1] 0.027 | dasatinib 0.016 | [2] 0.132 | [3] 0.044 | quisinostat -0.044 | tipifarnib 0.106 | [4] 0.021 | [5] 0.043 | [6] 0.005 | vorinostat -0.302 | silmitasertib -0.073 | [7] 0.142 | entospletinib -0.021

ZYG11B (UniProt Q9C0D3)
inactive: nilotinib 0.009 | [1] -0.013 | dasatinib 0.06 | [2] -0.009 | [3] -0.016 | quisinostat -0.153 | tipifarnib 0.004 | [4] 0.059 | [8] -0.013 | [5] -0.032 | [6] 0 | vorinostat -0.083 | silmitasertib -0.001 | [7] 0.086 | entospletinib -0.038

ZNF644 (UniProt Q9H582)
inactive: nilotinib -0.062 | [1] 0.153 | dasatinib 0.066 | [2] 0.017 | [3] -0.061 | quisinostat -0.026 | tipifarnib -0.012 | [4] 0.058 | [5] -0.167 | [6] -0.007 | vorinostat 0.222 | silmitasertib -0.092 | [7] 0.016 | entospletinib -0.022

ZMYM3 (UniProt Q14202)
inactive: nilotinib 0 | [1] -0.06 | dasatinib -0.056 | [2] 0.003 | [3] 0.035 | quisinostat -0.064 | tipifarnib 0.001 | [4] 0.009 | [8] -0.015 | [5] 0.033 | [6] -0.013 | vorinostat -0.161 | silmitasertib -0.01 | [7] -0.019 | entospletinib 0.019

ZKSCAN8 (UniProt Q15776)
inactive: nilotinib 0.05 | [1] 0.015 | dasatinib -0.096 | [2] -0.03 | [3] 0.026 | quisinostat -0.134 | tipifarnib 0.101 | [4] 0.005 | [8] -0.029 | [5] -0.064 | [6] 0.015 | vorinostat 0.229 | silmitasertib -0.005 | [7] 0.055 | entospletinib -0.002

ZNF622 (UniProt Q969S3)
inactive: nilotinib 0.011 | [1] -0.032 | dasatinib -0.018 | [2] 0.002 | [3] 0.037 | quisinostat 0.062 | tipifarnib 0.019 | [4] 0.006 | [8] 0.031 | [5] -0.003 | [6] 0.007 | vorinostat 0.074 | silmitasertib -0.014 | [7] 0.017 | entospletinib -0.03

Two consecutive entries already listed:
ZNF813 (UniProt Q6ZN06)
inactive: nilotinib 0.016 | [1] -0.086 | dasatinib -0.076 | [2] -0.031 | [3] 0.05 | tipifarnib 0.1

hCG_1984214 (UniProt I3L0E3)
inactive: nilotinib -0.035 | [1] 0.029 | dasatinib -0.033 | [2] 0.04 | [3] 0.022 | quisinostat -0.006 | tipifarnib 0.013 | [4] 0.013 | [8] 0.012 | [5] 0 | [6] 0.035 | vorinostat -0.165 | silmitasertib 0.111 | [7] 0.048 | entospletinib -0.044

(continued)

ZSWIM8 isoform 4 (UniProt A7E2V4)
inactive: nilotinib -0.009 | [1] 0.129 | dasatinib 0.085 | [2] 0.07 | [3] 0.042 | quisinostat -0.051 | tipifarnib -0.065 | [4] 0.067 | [5] -0.112 | [6] 0.079 | vorinostat -0.07 | silmitasertib 0.081 | [7] 0.071 | entospletinib -0.018

ZMIZ2 (UniProt Q8NF64)
inactive: nilotinib 0.06 | [1] -0.018 | dasatinib -0.054 | [2] -0.013 | [3] 0.264 | quisinostat -0.086 | tipifarnib -0.043 | [4] 0.065 | [8] 0.169 | [5] -0.078 | [6] 0.028 | vorinostat 0.142 | silmitasertib 0.044 | [7] -0.011 | entospletinib -0.131

ZNF618 (UniProt B1ALC2)
inactive: nilotinib 0.039 | [1] -0.043 | dasatinib -0.126 | [2] 0.098 | [3] 0.02 | quisinostat -0.139 | tipifarnib -0.069 | [4] 0.008 | [8] 0.046 | [6] 0.092 | [7] 0.054 | entospletinib 0.121

ZNF579 (UniProt Q8NAF0)
inactive: nilotinib 0.042 | [1] 0.054 | dasatinib -0.075 | [2] -0.03 | [3] -0.058 | quisinostat 0.011 | tipifarnib 0.097 | [4] -0.014 | [8] -0.089 | [5] -0.003 | [6] -0.085 | vorinostat 0.109 | silmitasertib -0.022 | [7] 0.058 | entospletinib -0.023

ZNF316 (UniProt A6NFI3)
inactive: nilotinib -0.115 | [1] 0.065 | dasatinib -0.123 | [2] -0.091 | [3] -0.035 | quisinostat -0.012 | tipifarnib -0.039 | [4] 0.029 | [8] 0.052 | [5] 0.031 | [6] 0.12 | vorinostat 0.004 | silmitasertib -0.047 | [7] 0.012 | entospletinib -0.025

ZNF318 (UniProt Q5VUA4)
active: vorinostat -0.332
inactive: nilotinib 0.043 | [1] -0.05 | dasatinib -0.104 | [2] -0.034 | [3] -0.002 | quisinostat 0.088 | tipifarnib -0.065 | [4] -0.004 | [8] -0.078 | [5] -0.028 | [6] 0.064 | silmitasertib -0.045 | [7] -0.059 | entospletinib -0.024
